# Some entries share one result that the patent states for a list of compounds. At least one compound was matched to its structure with a doubt left.
# Columns and labels:
# [1] = Fluorescence response to H2O2 in 20 mM HEPES, pH 7
# Protocol: (§1) Millipore water was used to prepare all aqueous solutions. All spectroscopic measurements were performed in 20 mM HEPES buffer, pH 7. Absorption spectra were recorded using a Varian Cary 50 spectrophotometer (Walnut Creek, Calif.). Fluorescence spectra were recorded using a Photon Technology International Quanta Master 4 L-format scanning spectrofluorometer (Lawrenceville, N.J.) equipped with an LPS-220B 75-W xenon lamp and power supply, A-1010B lamp housing with integrated igniter, switchable 814 photon-counting/analog photomultiplier detection unit, and MD5020 motor driver. Samples for absorption and fluorescence measurements were contained in 1-cm×1-cm quartz cuvettes (1.4- or 3.5-mL volume, Starna, Atascadero, Calif.).
# The Peroxysensor reagents were evaluated under simulated physiological conditions (20 mM HEPES buffer, pH 7). […] FIG. 4, FIG. 5 and FIG. 6 show the fluorescence responses of PF1, PR1, and PX1, respectively, to H2O2.
# [2] = Fluorescence response to various ROS (H2O2 selectivity); details: 20 mM HEPES, pH 7, 25° C.
# Protocol: (§2) FIG. 7 is the fluorescence response of 5 μM PF1 to various ROS (10 mM O2^−, 100 μM for all other ROS). .OH and .Ot-Bu were generated by reaction of Fe^2+ with H2O2 or tert-butyl hydroperoxide (TBHP), respectively. NO was delivered using S-nitrosocysteine (SNOC). Spectra were acquired in 20 mM HEPES, pH 7, and all data were obtained after incubation with the appropriate ROS at 25° C. for 1 h. Collected emission was integrated between 460 and 700 nm (λexc=450 nm).
# FIG. 8 is the fluorescence response of 5 μM PR1 to various ROS (10 mM O2^−, 100 μM for all other ROS). .OH and .O^tBu were generated by reaction of Fe^2+ with H2O2 or tert-butyl hydroperoxide (TBHP), respectively. NO was delivered using S-nitrosocysteine (SNOC). Spectra were acquired in 20 mM HEPES, pH 7, and all data were obtained after incubation with the appropriate ROS at 25° C. for 30 min. Collected emission was integrated between 570 and 800 nm (λexc=560 nm).
# as §2, with “FIG. 9” for “FIG. 7”, “of 10” for “of 5”, “μM PX1” for “μM PF1”, “between 370” for “between 460”, “and 600” for “and 700”, “nm (λexc=350” for “nm (λexc=450”
# as §1
# FIG. 7, FIG. 8 and FIG. 9 compare the relative reactivities of boronate-based PF1, PR1, and PX1, respectively, toward various ROS.
# [3] = Calibration of fluorescence response versus H2O2 concentration; details: 5-10 μM dye, 20 mM HEPES, pH 7, 15 min at 25° C.
Compound,increase in integrated fluorescence intensity / integrated emission on reaction with H2O2 (dynamic range) [1] [fold],"higher response for H2O2 over .OH ([2]; 100 μM ROS, .OH from Fe2+ with H2O2) [fold]","higher response for H2O2 over .OtBu ([2]; 100 μM ROS, .OtBu from Fe2+ with TBHP) [fold]",higher response for H2O2 over −OCl ([2]; 100 μM ROS) [fold],"higher response for H2O2 over O2− ([2]; 10 mM O2−, 100 μM H2O2) [fold]",H2O2 range with linear correlation to fluorescence response [3] [µM],lowest H2O2 concentration reliably detected in aqueous solution [3] [nM]
"CC1(C)OB(c2ccc3c(c2)Oc2cc(B4OC(C)(C)C(C)(C)O4)ccc2N3)OC1(C)C [PR1, 3,7-Bis(pinacolatoboron)phenoxazine]",> 1000,,,,,,
"CC1(C)OB(c2ccc3c(=O)c4ccc(B5OC(C)(C)C(C)(C)O5)cc4oc3c2)OC1(C)C [PX1, 3,6-Bis(pinacolatoboron)xanthone]",,> 500,> 500,> 25,> 500,0 to 50,100 to 200

# From patent US8791258B2, “Pro-fluorescent probes” (The Regents of the University of California, priority 2008, dated 2014)
